Reference: patent EP4775589A1, “PHARMACEUTICAL COMPOSITION COMPRISING A PEPTIDE OR A COMBINATION OF PEPTIDES AGONISTIC TO THE MAS, AT1 AND AT2 RECEPTORS” (Pontificia Universidad Católica de Chile, priority 2023, dated 2025)
Not every detail of the peptide structures is certain; ends, links or a residue may be inferred. Where a SMILES comes first, the peptide text is derived from it. [ ]: non-standard residue; d: D form.

Assays:
Set-up in all cases: species or system Wistar Kyoto rats
[1] = test system: aortic rings pre-contracted with phenylephrine; conditions: for maximum effect of relaxation (maximum vasodilation): aortic rings, peptide concentration 10^-13 M, Mean ± SEM; for vasodilatory effect (concentration level at which exerted): dose-response curves 10^-18 to 10^-4 M, aortic rings pre-contracted with phenylephrine 10^-7 M
Procedure: Ten-week-old male Wistar Kyoto rats were anesthetized with ketamine (35 mg/kg) and xylazine (7 mg/kg) administered intraperitoneally. The aortas were removed, dissected from the extravascular connective tissue, and cut into 3 mm long rings in fresh Krebs buffer pH 7.4 (KRB, 120 mM NaCl, 25 mM NaHCO3, 5 mM glucose, 4.8 mM KCI, 2.5 mM CaCl2, 1.2 mM MgSO4, […], and 1.2 mM KH2PO4) freshly bubbled with 5% CO2 in air. They were then mounted on a wire myograph (DMT 620M) and placed in an organ bath with KRB, pH 7.4 at 37°C with constant bubbling and equilibrated for 30 min at a tension of 1.5 g. The vasodilator response of ^DH^DF^DP^DH^DI^DY^DV^DR^DD^LD^LR^LV^LY^LI^LH^LP (SEQ ID NO: 1), which corresponds to a fusion of the angiotensin-(1-9) retro-enantio peptide (D-amino acids, N-terminal to C-terminal direction: ^DH^DF^DP^DH^DI^DY^DV^DR^DD (SEQ ID NO: 2)) and the angiotensin-(1-7) peptide (L-amino acids, N-terminal to C-terminal direction: ^LD^LR^LV^LY^LI^LH^LP (SEQ ID NO: 3) were evaluated in dose-response curves [10^-18 to 10^-4 M] to these molecules in baths with aortic rings pre-contracted with phenylephrine 10^-7 M. Carbacol (10^-6-10^-4 M) was used as a relaxation control. The peptides were added in cumulative concentrations to the baths when the vasoconstrictor response to phenylephrine reached its maximum level. Vessel tension was recorded with a PowerLab 8/25 amplifier, and the data were captured and analyzed using LabChart 7.0 software.
In this experiment, the percentage of vasodilation achieved by aortic rings when incubated with ^DH^DF^DP^DH^DI^DY^DV^DR^DD^LD^LR^LV^LY^LI^LH^LP (SEQ ID NO: 1) or angiotensin-(1-9) retro-enantio (D-amino acids, N-terminal to C-terminal direction: ^DH^DF^DP^DH^DI^DY^DV^DR^DD (SEQ ID NO: 2)) at a concentration of 10^-13 M. ^DH^DF^DP^DH^DI^DY^DV^DR^DD^LD^LR^LV^LY^LI^LH^LP (SEQ ID NO: 1) exerts a maximum effect of relaxation of 13.4±1.6% (FIG. 4). Meanwhile, the maximum vasodilation achieved by ^DH^DF^DP^DH^DI^DY^DV^DR^DD (SEQ ID NO: 2) was 2.1±0.6% at the same concentration (FIG. 4).
The effective concentration of the peptide ^DH^DF^DP^DH^DI^DY^DV^DR^DD^LD^LR^LV^LY^LI^LH^LP (SEQ ID NO: 1) and the angiotensin-(1-9) retro-inverso SEQ ID NO: 2 that produces 50% of the maximum vasorelaxation effect (EC50) was calculated. In particular, EC50 corresponds to the concentration of the peptide at which 50% of the vasodilatory response of aortic rings pre-contracted with phenylephrine 10^-7 M is achieved. […] Table 1. EC50 of the angiotensin-(1-9) retro-inverso peptide (RI-Ang-(1-9)) and the peptide of SEQ ID NO: 1 (HP16).

Mas receptor = target: T1, Mas receptor (Rattus norvegicus, UniProt P12526); test: Vasodilator effect in aortic rings in the presence and absence of the Mas receptor blocker A779; conditions: A779 10^-7 M pre-incubation
T1 construct: The aortas were removed, dissected from the extravascular connective tissue, and cut into 3 mm long rings; from tissue; host or cells: aortic rings of Wistar Kyoto rats
T1 sequence (P12526 1-324): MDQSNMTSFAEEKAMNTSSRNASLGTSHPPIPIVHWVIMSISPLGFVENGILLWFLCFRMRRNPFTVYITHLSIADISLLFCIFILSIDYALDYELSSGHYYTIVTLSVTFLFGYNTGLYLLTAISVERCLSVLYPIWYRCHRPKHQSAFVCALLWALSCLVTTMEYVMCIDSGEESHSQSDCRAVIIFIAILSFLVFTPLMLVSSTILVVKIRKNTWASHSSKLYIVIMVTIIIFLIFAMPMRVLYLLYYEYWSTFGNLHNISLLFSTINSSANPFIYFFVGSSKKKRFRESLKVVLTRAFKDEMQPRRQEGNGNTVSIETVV

AT2 receptor = target: T2, AT2 receptor (Rattus norvegicus, UniProt P35351); test: Vasodilator effect in aortic rings in the presence and absence of the AT2 receptor blocker PD123319; conditions: PD123319 10^-5 M pre-incubation
T2 construct: The aortas were removed, dissected from the extravascular connective tissue, and cut into 3 mm long rings; from tissue; host or cells: aortic rings of Wistar Kyoto rats
T2 sequence (P35351 1-363): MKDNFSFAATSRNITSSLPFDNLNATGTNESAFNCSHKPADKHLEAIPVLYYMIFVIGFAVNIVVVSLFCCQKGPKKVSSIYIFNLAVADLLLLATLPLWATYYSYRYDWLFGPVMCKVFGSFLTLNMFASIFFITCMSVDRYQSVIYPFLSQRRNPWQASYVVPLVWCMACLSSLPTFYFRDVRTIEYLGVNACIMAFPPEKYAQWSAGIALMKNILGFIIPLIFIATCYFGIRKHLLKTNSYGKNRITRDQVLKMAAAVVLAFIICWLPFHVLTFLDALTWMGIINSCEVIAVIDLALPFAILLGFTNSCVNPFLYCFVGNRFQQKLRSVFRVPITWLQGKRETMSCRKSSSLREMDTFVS

AT1 receptor = test: Vasodilator effect in aortic rings in the presence and absence of the AT1 receptor blocker Losartan; conditions: Losartan 10^-6 M pre-incubation
[2] = test system: Mas, AT1, and AT2 receptors; test: Vasodilator effect in aortic rings in the presence and absence of Losartan, PD123319 and A779 together; conditions: A779 10^-5 M, Losartan 10^-5 M, PD123319 10^-4 M pre-incubation; peptide 10^-18 to 10^-4 M; phenylephrine 10^-7 M
[3] = relative to angiotensin-(1-9) retro-enantio peptide
[4] = higher peptide concentrations (above 10^-9 M)

| Structure (SMILES) | maximum effect of relaxation (maximum vasodilation) [1] | vasodilatory effect (concentration level at which exerted) [1] | EC50 with respect to the angiotensin-(1-9) retro-enantio peptide [1, 3] | vasodilatory effect at a concentration times lower compared to the angiotensin-(1-9) retro-enantio peptide [1, 3] | effect of A779 on vasodilation induced by the peptide (Mas receptor; [4]) | effect of A779 on vasorelaxation induced by the peptide (Mas receptor; peptide between 10^-18-10^-9 M, phenylephrine 10^-7 M) | effect of PD123319 on vasodilator action of the peptide (AT2 receptor; peptide 10^-18 to 10^-4 M, phenylephrine 10^-7 M) | effect of PD123319 on vasodilator effect of the peptide (AT2 receptor; peptide concentrations greater than 10^-11 M) | effect of losartan on vasodilatory response of the peptide (AT1 receptor; [4]) | effect of losartan on vasodilation by the peptide (AT1 receptor; peptide 10^-18-10^-9 M, phenylephrine 10^-7 M) | effect of losartan, PD123319 and A779 on vasodilator effect of the peptide [2] |
| --- | --- | --- | --- | --- | --- | --- | --- | --- | --- | --- | --- |
| CC[C@@H](C)[C@@H](NC(=O)[C@@H](Cc1c[nH]cn1)NC(=O)[C@H]1CCCN1C(=O)[C@@H](Cc1ccccc1)NC(=O)[C@H](N)Cc1c[nH]cn1)C(=O)N[C@H](Cc1ccc(O)cc1)C(=O)N[C@@H](C(=O)N[C@H](CCCNC(=N)N)C(=O)N[C@H](CC(=O)O)C(=O)N[C@@H](CC(=O)O)C(=O)N[C@@H](CCCNC(=N)N)C(=O)N[C@H](C(=O)N[C@@H](Cc1ccc(O)cc1)C(=O)N[C@H](C(=O)N[C@@H](Cc1c[nH]cn1)C(=O)N1CCC[C@H]1C(=O)O)[C@@H](C)CC)C(C)C)C(C)C [HP16, ^DH^DF^DP^DH^DI^DY^DV^DR^DD^LD^LR^LV^LY^LI^LH^LP] | 13.4±1.6% | significantly greater vasodilatory effect at femtomolar concentrations | one order of magnitude lower | 1000 times | did not modify | partially modified | partially blocked | did not block | did not modify | significantly decreased | completely blocked |
| CC[C@@H](C)[C@@H](NC(=O)[C@@H](Cc1c[nH]cn1)NC(=O)[C@H]1CCCN1C(=O)[C@@H](Cc1ccccc1)NC(=O)[C@H](N)Cc1c[nH]cn1)C(=O)N[C@H](Cc1ccc(O)cc1)C(=O)N[C@@H](C(=O)N[C@H](CCCNC(=N)N)C(=O)N[C@H](CC(=O)O)C(=O)O)C(C)C [RI-Ang-(1-9), ^DH^DF^DP^DH^DI^DY^DV^DR^DD, reference compound] (H-[dH][dF][dP][dH][dI][dY][dV][dR][dD]-OH) | 2.1±0.6% | at picomolar concentrations | – | – | – | – | – | – | – | – | – |
